Measurements: PubChem BioAssay (NCATS)
Inconclusive results, whose numbers are uncertain, are shown with a selection of clear calls. Potencies of inconclusive entries are doubtful fits and often do not repeat. Calls of active or inactive are those of the source. Calls come from the whole dose curve; as a rule, active = well fitted cell-killing curve with a large enough effect; inconclusive = small, poorly fitted or top-dose-only effect, or effect the other way; inactive = no such curve, though single readings can be large or run the other way.

Assay: Quantitative High-Throughput drug screen in 47 multiple myeloma cell lines against the NCATS MIPE library collection: MMM1_PLB cell viability assay (AID 1918976); note: nearly all actives have a fitted effect of over 35% in size
Conditions: MMM1 myeloma cells viability, CellTiter-Glo, 48 h; series mostly up to 45.8 µM; viability (% of control): at the top concentration
Method in brief: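 500 cells/well per myeloma line exposed to pinned MIPE 4.0 compounds for 48 h at 37 °C, 5% CO2. Viability read as ATP by CellTiter-Glo luminescence, normalised to DMSO-only (100%) and media-only (0%) wells.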
Potency is the fitted concentration of half-maximal effect.

Compound	Potency	viability (% of control)
CC1=C(C)C(=O)C(C(CCCCCC(=O)O)c2ccccc2)=C(C)C1=O (stereo unspecified)	inconclusive: 33200 nM [cytotoxic, single point]	–
CO[C@H]1C(=O)[C@]2(C)[C@@H](OC)C[C@H]3OC[C@@]3(OC(C)=O)[C@H]2[C@H](OC(=O)c2ccccc2)[C@]2(O)C[C@H](OC(=O)[C@H](O)[C@@H](NC(=O)OC(C)(C)C)c3ccccc3)C(C)=C1C2(C)C	inconclusive: 20900 nM [cytotoxic, single point]	–
C[C@@H]1CCN(C(=O)CC#N)C[C@H]1N(C)c1ncnc2[nH]ccc12	–	inactive: 101%
CCc1ccc(C=C2SC(=S)NC2=O)cc1	inconclusive: 7.4 nM [rising, full curve, poor fit]	–
O=c1c(-c2ccc(O)cc2)coc2cc(O)ccc12	active: 5260 nM	–
Cc1cccc(C#Cc2ccccc2)n1	inconclusive: 18700 nM [cytotoxic, partial curve, poor fit]	–
Nc1nc(F)nc2c1ncn2[C@@H]1O[C@H](COP(=O)(O)O)[C@@H](O)[C@H]1O	inconclusive: 5.3 nM [rising, full curve, poor fit]	–
O=C(NNC(=O)c1ccc(CNS(=O)(=O)c2ccc(F)c(Cl)c2)cc1)c1ccccc1	inconclusive: 6.6 nM [rising, full curve, poor fit]	–
O=C(Nc1ccccc1)Nc1ccc(-c2ccc(C(=O)[C@H]3CCC[C@H]3C(=O)O)cc2)cc1	inconclusive: 1320 nM [cytotoxic, full curve, poor fit]	–
NC1CCC(Nc2nc(Nc3ccc(C(=O)N4CCCCC4)cc3)c3ncn(-c4cccc(F)c4)c3n2)CC1 (stereo unspecified)	inconclusive: 20.9 nM [rising, full curve]	–
O=c1c(O)c(-c2ccc(O)c(O)c2)oc2cc(O)cc(O)c12	inconclusive: 3.3 nM [rising, full curve, poor fit]	–
Cc1[nH]c(C=C2C(=O)Nc3ccccc32)c(C)c1CCC(=O)O	inconclusive: 20900 nM [cytotoxic, partial curve, poor fit]	–
CC(C)(C)COc1ccc(-n2cc(C(=O)O)cn2)cc1C#N	inconclusive: 1660 nM [cytotoxic, partial curve, poor fit]	–
CC(=O)Oc1cc2c(s1)CCN(C(C(=O)C1CC1)c1ccccc1F)C2 (stereo unspecified)	active: 1480 nM	–
CC(=O)Oc1ccccc1C(=O)O	inconclusive: 52.6 nM [cytotoxic, full curve, poor fit]	–
O=c1c2ccccc2nc2n1CCc1c-2[nH]c2ccccc12	inconclusive: 29600 nM [cytotoxic, single point]	–
COc1ccc(CC2=NN3C([C@@H](CCc4ccccc4)[C@@H](C)O)=NC(C)C3C(=O)N2)cc1OC (stereo partly specified)	inconclusive: 6620 nM [cytotoxic, partial curve, poor fit]	–
CCOc1ccc(Cc2cc([C@@H]3O[C@H](CO)[C@@H](O)[C@H](O)[C@@H]3O)ccc2Cl)cc1	inconclusive: 3 nM [rising, full curve]	–
CN1CCN(C2=Nc3cc(Cl)ccc3Nc3ccccc32)CC1	inconclusive: 11.8 nM [rising, full curve, poor fit]	–
CCOC1OC(=O)C[C@H]1NC(=O)[C@@H]1CCCN1C(=O)[C@@H](NC(=O)c1ccc(N)c(Cl)c1)C(C)(C)C (stereo partly specified)	inconclusive: 2.6 nM [rising, full curve]	–
O=C(O)c1cc(=O)c2c(OCC(O)COc3cccc4oc(C(=O)O)cc(=O)c34)cccc2o1	inconclusive: 16.6 nM [rising, full curve]	–
Cc1[nH]c(=O)c(C#N)cc1-c1ccc2nccn2c1	inconclusive: 33.2 nM [rising, full curve, poor fit]	–
Cc1c(OCC(F)(F)F)ccnc1CS(=O)c1nc2ccccc2[nH]1 (stereo unspecified)	inconclusive: 10.5 nM [rising, full curve, poor fit]	–
C[C@H](NC(=O)[C@@H](O)c1cc(F)cc(F)c1)C(=O)N[C@@H]1C(=O)N(C)c2ccccc2-c2ccccc21	inconclusive: 2960 nM [cytotoxic, full curve, poor fit]	–
Cc1ccc(NC(=O)c2ccc(CN3CCN(C)CC3)cc2)cc1Nc1nccc(-c2cccnc2)n1	inconclusive: 26400 nM [cytotoxic, single point]	–
Cc1[nH]c(=O)c(C#N)cc1-c1ccncc1	inconclusive: 9.3 nM [rising, full curve]	–

Among those listed so far, 3 contain a tert-butyl group:
Compound	Potency	viability (% of control)
CO[C@H]1C(=O)[C@]2(C)[C@@H](OC)C[C@H]3OC[C@@]3(OC(C)=O)[C@H]2[C@H](OC(=O)c2ccccc2)[C@]2(O)C[C@H](OC(=O)[C@H](O)[C@@H](NC(=O)OC(C)(C)C)c3ccccc3)C(C)=C1C2(C)C	inconclusive: 20900 nM [cytotoxic, single point]	–
CC(C)(C)COc1ccc(-n2cc(C(=O)O)cn2)cc1C#N	inconclusive: 1660 nM [cytotoxic, partial curve, poor fit]	–
CCOC1OC(=O)C[C@H]1NC(=O)[C@@H]1CCCN1C(=O)[C@@H](NC(=O)c1ccc(N)c(Cl)c1)C(C)(C)C (stereo partly specified)	inconclusive: 2.6 nM [rising, full curve]	–
